Data as given in patent US20130230532A1 (HONG KONG UNIVERSITY OF SCIENCE AND TECHNOLOGY, published 2013).
These are yes or no findings as the source states them, for the method shown. Binding seen in cells or lysates may run through a third protein. Tags and fused reporters may be left off the sequences shown.

Biological target: RII subunit of protein kinase A
Test: anti-FLAG co-immunoprecipitation from HEK293T, immunoblot for RII subunit

binding: no binding
B1: FLAG-tagged MMG8 fragment 390-1116 (other)
chain: HETTITQQSVSDSHLAELQEKIQQTEATNKILQEKLNEMSYELKCAQESSQKQDGTIQNLKETLKSRERETEELYQVIEGQNDTMAKLREMLHQSQLGQLHSSEGTSPAQQQVALLDLQSALFCSQLEIQKLQRVVRQKERQLADAKQCVQFVEAAAHESEQQKEASWKHNQELRKALQQLQEELQNKSQQLRAWEAEKYNEIRTQEQNIQHLNHSLSHKEQLLQEFRELLQYRDNSDKTLEANEMLLEKLRQRIHDKAVALERAIDEKFSALEEKEKELRQLRLAVRERDHDLERLRDVLSSNEATMQSMESLLRAKGLEVEQLSTTCQNLQWLKEEMETKFSRWQKEQESIIQQLQTSLHDRNKEVEDLSATLLCKLGPGQSEIAEELCQRLQRKERMLQDLLSDRNKQVLEHEMEIQGLLQSVSTREQESQAAAEKLVQALMERNSELQALRQYLGGRDSLMSQAPISNQQAEVTPTGRLGKQTDQGSMQIPSRDDSTSLTAKEDVSIPRSTLGDLDTVAGLEKELSNAKEELELMAKKERESQMELSALQSMMAVQEEELQVQAADMESLTRNIQIKEDLIKDLQMQLVDPEDIPAMERLTQEVLLLREKVASVESQGQEISGNRRQQLLLMLEGLVDERSRLNEALQAERQLYSSLVKFHAHPESSERDRTLQVELEGAQVLRSRLEEVLGRSLERLNRLETLAAIGGGELESVRIHHKHAY
notes: not shown: FLAG tag
